Measurements: paper doi:10.1101/2023.01.21.525018
Where two headings read alike, the source gives them in different places. Results are given in words; binding and its absence hold for the method and conditions named. In cells and extracts the contact can be indirect. Some binding calls cover weakened binding; strength is not graded here. Where a sequence is shown, tags or fusion partners need not be part of it.

B1: Rad21-nYFP (protein, UniProt P30776 1-628)
chain: MFYSEAILSKKGPLAKVWLAAHWEKKLSKVQTLHTSIEQSVHAIVTEETAPMALRLSGQLMLGVVRIYSRKARYLLEDCTEALMRLKMSFQPGQVDMIEPATALQSLKGKDAVTQSANLTLPETITEFDLLVPDSTFDFQWSQLLRTPSRSSNTLELHSLPISSSPSFPSSQLSIEAGRNAQVESGFSLGESFAHVGNDMQFHLPISNSGAATPRSVHSDNQSQISIEVGRDAPAAAATDLSGIIGPQMTKSPASSVTHFSTPSMLPIGGTSLDDELLAPVDDLNLDLGLDDLLGDEQGANAPAIEADEQAETSSIHLPSDIMEDDSSRPAAAGVEEGQVVESATAPQQEKINPQKTVRRQRAIIDPVTELSSKQMKKQLADTSSITSPLCLNTSSIVFNATVNFTRNGKFNTSIFSSNLNPKVNELLQADFKQAILRKRKNESPEEVEPAKHQRTDTSTENQETAEVLDPEEIAAAELANITEAAIATLPQETVVQPEGEAPELGSPMGFPVTALESADDSLFDAPPVMLDEADLLGSERLDSSVSEALPSSQTAKDSLRNKWDPYTEGEKVSFQTLSAGCNREEAVQLFFDVLVLATKDVISVKQDVAIQNEITLTAKRGMLLSSL
B2: Rad21-cYFP (protein, UniProt P30776 1-628)
chain: B1 chain

Experiments:
Experiment in all cases: split reporter
Psm1-cYFP (S. pombe) = molecular target: T1, Psm1-cYFP (S. pombe) (UniProt O94383)
T1 sequence: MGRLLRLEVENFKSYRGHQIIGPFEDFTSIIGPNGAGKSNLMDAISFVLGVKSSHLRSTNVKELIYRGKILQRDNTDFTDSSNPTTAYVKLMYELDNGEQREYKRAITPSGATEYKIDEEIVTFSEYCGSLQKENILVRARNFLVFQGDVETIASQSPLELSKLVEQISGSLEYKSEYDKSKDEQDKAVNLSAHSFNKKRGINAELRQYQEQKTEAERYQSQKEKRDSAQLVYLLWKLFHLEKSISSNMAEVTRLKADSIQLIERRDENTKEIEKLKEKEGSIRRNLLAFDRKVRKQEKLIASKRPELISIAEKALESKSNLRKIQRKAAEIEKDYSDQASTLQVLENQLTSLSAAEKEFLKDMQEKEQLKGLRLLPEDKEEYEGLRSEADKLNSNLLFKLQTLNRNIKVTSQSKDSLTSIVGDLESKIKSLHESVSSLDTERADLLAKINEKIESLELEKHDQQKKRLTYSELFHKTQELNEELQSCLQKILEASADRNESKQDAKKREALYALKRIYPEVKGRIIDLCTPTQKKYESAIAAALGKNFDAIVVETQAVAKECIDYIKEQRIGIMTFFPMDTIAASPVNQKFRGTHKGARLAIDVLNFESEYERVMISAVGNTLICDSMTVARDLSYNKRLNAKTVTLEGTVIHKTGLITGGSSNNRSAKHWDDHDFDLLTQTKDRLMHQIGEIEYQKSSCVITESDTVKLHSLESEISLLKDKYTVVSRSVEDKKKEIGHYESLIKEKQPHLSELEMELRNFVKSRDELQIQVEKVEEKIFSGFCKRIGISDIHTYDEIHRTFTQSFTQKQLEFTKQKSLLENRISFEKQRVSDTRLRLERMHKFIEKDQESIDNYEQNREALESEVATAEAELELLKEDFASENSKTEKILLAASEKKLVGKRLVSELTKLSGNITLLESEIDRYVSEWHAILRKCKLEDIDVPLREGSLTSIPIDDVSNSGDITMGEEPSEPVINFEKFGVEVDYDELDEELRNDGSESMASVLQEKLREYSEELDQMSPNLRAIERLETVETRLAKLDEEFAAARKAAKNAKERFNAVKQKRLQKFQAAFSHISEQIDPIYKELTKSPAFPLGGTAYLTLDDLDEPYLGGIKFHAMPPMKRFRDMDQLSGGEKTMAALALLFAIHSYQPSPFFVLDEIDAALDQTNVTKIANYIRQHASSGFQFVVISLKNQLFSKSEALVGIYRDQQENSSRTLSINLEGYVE

Psm1-nYFP (S. pombe) [1] = molecular target: T2, Psm1-nYFP (S. pombe) (UniProt O94383)
T2 sequence: T1 sequence

Psm1-nYFP (S. pombe) [2] = molecular target: T2, Psm1-nYFP (S. pombe); remark: listed apart in the source

Binder	binding (Psm1-cYFP (S. pombe))	binding (Psm1-nYFP (S. pombe) [1])	binding (Psm1-nYFP (S. pombe) [2])
B1	binds		
B2		binds weakly	binds
